PubChem BioAssay AID686943 | Drosophila RNAi Screening Center, 2013

Aim: 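Knockdowns that increase or decrease active ERK after insulin receptor stimulation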 (primary screen)
Cell system: Drosophila S2R+ haemocyte-like cells expressing YFP-tagged ERK (Rolled)
Reagent: long dsRNA against Drosophila genes
Treatment: insulin stimulation versus unstimulated cells; dose and duration not given
Read-out: 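Per-plate z-scores of phospho-ERK immunostaining normalised to YFP-tagged ERK, measured with and without insulin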
Direction: replicate 1, z-score of dpERK with insulin: higher = more active ERK per ERK-YFP after insulin
The deposit covers about 23,000 reagents; below is an unselected part of those that have a named target and a result. 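Extra replicates exist only for a retested subset of genes; insulin dose and duration not given; both raised and lowered dpERK matter.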 Reagents against one gene are numbered here. Further read-outs or replicates are left out here. No sequences are given here. Not stated in the record: the amount of reagent, the time to read-out.

replicate 1, z-score of dpERK with insulin, by gene and reagent
CG31278 (GeneID 41282): #1 0.28
CG5707 (GeneID 48422): #1 0.22
CG12301 (GeneID 39689): #1 0.15
prod (GeneID 37187): #1 -1.68
CG3342 (GeneID 31586): #1 -0.44
CG15760 (GeneID 32324): #1 0.81
Tbce (GeneID 35532): #1 -0.92
Phlpp (GeneID 35178): #1 -0.1; #2 0.03
Nfs1 (GeneID 34613): #1 -0.36
aly (GeneID 45960): #1 -0.02; #2 0.12
PNUTS (GeneID 33270): #1 0.96; #2 3.18
Arp53D (GeneID 36879): #1 0.02
Polr1A (GeneID 36617): #1 0.06
DCTN5-p25 (GeneID 34873): #1 -0.1
CG3603 (GeneID 31289): #1 -1.02
CG34328 (GeneID 5740378): #1 0.24
msn (GeneID 44030): #1 -0.15; #2 0.17
CG6409 (GeneID 39220): #1 0.07; #2 -0.07
TTLL6A (GeneID 37253): #1 0.93
dap (GeneID 36001): #1 1.61
CG14126 (retired record) (GeneID 39350): #1 0.31
CG13631 (GeneID 50073): #1 0.12
CG18420 (GeneID 2768924): #1 0.28
Rich (GeneID 40456): #1 0.7
hdm (GeneID 31705): #1 -0.13
CG4751 (GeneID 34551): #1 0.14
p24-1 (GeneID 32140): #1 -1.2
CG12594 (GeneID 41416): #1 1.18
Fum2 (GeneID 31606): #1 0.68
CG30280 (GeneID 37522): #1 0.1
Ubc10 (GeneID 37035): #1 -1.03
Vps45 (GeneID 41153): #1 -0.03
LysP (GeneID 38129): #1 0.08
alpha-Est8 (GeneID 40899): #1 -0.17
Cyp313b1 (GeneID 41019): #1 -0.04
CG6497 (GeneID 39924): #1 0.7; #2 0.18
Yp3 (GeneID 32339): #1 0.09
unc-45 (GeneID 44910): #1 0.43
Dredd (GeneID 31011): #1 -0.35
CG42717 (GeneID 10178897): #1 0.95
bab2 (GeneID 44254): #1 0.17; #2 -2.08
CG17440 (GeneID 31879): #1 0.2
Rat1 (GeneID 33964): #1 0.79
CG10311 (GeneID 41984): #1 -0.35
CTCF (GeneID 38817): #1 -0.18
cu (GeneID 41339): #1 0.06; #2 0.55
CG43088 (GeneID 12797977): #1 1.27; #2 -0.03
CG2698 (GeneID 40945): #1 0.04

Part of the list above in another layout.
Gene | dsRNA no. | replicate 1, z-score of dpERK with insulin
CG15760 (GeneID 32324) | 1 | 0.81
Tbce (GeneID 35532) | 1 | -0.92
Phlpp (GeneID 35178) | 1 | -0.1
Phlpp (GeneID 35178) | 2 | 0.03
Nfs1 (GeneID 34613) | 1 | -0.36
aly (GeneID 45960) | 1 | -0.02
aly (GeneID 45960) | 2 | 0.12
PNUTS (GeneID 33270) | 1 | 0.96
PNUTS (GeneID 33270) | 2 | 3.18
